For 2 molecules, binding results are on record in patent EP3725799B1, “PEPTIDE BINDING TO PL-L1 AND USE THEREOF” (Kyungpook National University Industry-Academic Cooperation …, priority 2017, dated 2025).

No constants are given. Whether binding was seen depends on the method and setting. Binding seen in cells or lysates may run through a third protein. Binding can be weak; no strength is given.

In this test the target is recombinant PD-L1. Description: streptavidin pull-down of biotin-peptide with recombinant PD-L1, immunoblot. (A western blot detects proteins with antibodies after separation by electrophoresis.)

Regarding CLQKTPKQC (FITC, biotin or Flamma-675 conjugated to the N-terminal, according to the assay) [PD-L1Pep-1], the binding result is given as “binds”.

With CVRARTR (FITC, biotin or Flamma-675 conjugated to the N-terminal, according to the assay) [PD-L1Pep-2], the binding entry is “binds”.
